These are yes or no findings as the source states them, for the method shown. For some of these results: In cells and extracts the contact can be indirect. Some entries that bind do so weakly or less than the wild type.
Experiments:
GST-NuMA-FLAG (human) = GST-NuMA-FLAG (human) (UniProt Q14980); assay: pull-down; 0.2 μM GST-NuMA-FLAG prebound to glutathione Sepharose, incubated with 0.5 μM recombinant p80 or p80 fragments; both purified
[1] = target: GFP-p80, full-length human katanin p80 (human) (UniProt Q9BVA0); assay: co-IP; anti-GFP antibody (JL-8) on protein G-Sepharose, lysates of MEF cells overexpressing GFP or GFP-p80 constructs; 20 mM Tris pH 8.0, 0.1 M KCl, 0.2% Triton X-100; 2 h; Western blot
[2] = target: GFP-p80 250-655 aa (C-terminal region) (human) (UniProt Q9BVA0); assay: as above

Chains of the proteins cited; added tags and fusions are not shown. Lines headed by an entry give the natural chain unless they say otherwise; changes in a name come on top. Residues count along the entry.
UniProt Q14980: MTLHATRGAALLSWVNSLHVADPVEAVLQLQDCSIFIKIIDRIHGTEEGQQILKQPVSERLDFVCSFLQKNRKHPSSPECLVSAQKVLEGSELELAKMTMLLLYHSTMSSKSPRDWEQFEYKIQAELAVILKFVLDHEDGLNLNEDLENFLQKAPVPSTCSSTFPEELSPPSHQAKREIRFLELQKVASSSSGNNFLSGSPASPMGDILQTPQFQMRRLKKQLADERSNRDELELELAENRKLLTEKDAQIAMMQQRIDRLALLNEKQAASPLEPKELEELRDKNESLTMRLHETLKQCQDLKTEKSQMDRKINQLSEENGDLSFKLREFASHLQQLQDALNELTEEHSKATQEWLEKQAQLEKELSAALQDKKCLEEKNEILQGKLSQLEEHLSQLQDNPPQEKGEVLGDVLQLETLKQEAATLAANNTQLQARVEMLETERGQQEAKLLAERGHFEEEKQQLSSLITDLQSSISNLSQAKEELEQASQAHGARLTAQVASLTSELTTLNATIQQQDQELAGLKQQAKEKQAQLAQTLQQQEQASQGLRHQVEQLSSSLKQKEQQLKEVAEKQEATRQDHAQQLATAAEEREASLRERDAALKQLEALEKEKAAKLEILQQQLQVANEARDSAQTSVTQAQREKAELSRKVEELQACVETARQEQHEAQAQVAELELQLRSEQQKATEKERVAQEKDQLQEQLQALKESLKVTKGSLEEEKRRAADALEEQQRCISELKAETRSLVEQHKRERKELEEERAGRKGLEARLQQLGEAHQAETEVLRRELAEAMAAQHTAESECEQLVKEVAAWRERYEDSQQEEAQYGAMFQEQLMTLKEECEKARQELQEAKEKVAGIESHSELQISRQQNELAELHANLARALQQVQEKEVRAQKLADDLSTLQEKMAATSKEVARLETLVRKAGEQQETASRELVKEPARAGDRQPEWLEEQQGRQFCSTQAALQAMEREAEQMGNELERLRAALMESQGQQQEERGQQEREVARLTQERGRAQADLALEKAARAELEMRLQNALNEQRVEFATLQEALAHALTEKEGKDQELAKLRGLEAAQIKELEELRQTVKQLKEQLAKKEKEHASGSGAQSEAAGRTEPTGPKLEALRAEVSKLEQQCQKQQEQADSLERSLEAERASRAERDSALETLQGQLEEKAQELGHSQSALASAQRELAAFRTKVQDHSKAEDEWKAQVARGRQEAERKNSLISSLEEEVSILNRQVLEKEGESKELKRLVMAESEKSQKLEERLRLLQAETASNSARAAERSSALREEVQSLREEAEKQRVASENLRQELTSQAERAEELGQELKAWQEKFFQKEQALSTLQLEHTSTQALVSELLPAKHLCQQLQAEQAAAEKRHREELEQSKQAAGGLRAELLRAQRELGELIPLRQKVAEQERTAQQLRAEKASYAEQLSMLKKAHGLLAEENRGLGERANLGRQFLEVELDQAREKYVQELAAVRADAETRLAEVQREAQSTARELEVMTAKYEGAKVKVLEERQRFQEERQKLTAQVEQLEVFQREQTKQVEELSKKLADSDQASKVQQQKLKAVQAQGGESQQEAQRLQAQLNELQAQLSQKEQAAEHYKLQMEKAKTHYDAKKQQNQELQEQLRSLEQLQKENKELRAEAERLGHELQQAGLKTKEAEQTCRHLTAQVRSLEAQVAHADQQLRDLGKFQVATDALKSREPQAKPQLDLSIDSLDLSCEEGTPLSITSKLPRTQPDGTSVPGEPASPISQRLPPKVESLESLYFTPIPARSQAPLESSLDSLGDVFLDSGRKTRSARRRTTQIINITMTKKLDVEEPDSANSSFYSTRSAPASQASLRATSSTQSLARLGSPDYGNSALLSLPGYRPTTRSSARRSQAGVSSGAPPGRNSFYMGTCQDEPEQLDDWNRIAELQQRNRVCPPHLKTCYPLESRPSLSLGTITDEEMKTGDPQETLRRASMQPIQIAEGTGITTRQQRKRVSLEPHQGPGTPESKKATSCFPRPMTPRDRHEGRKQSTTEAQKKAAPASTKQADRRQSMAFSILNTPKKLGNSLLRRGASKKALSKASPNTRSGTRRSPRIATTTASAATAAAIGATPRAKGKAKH
UniProt Q9BVA0: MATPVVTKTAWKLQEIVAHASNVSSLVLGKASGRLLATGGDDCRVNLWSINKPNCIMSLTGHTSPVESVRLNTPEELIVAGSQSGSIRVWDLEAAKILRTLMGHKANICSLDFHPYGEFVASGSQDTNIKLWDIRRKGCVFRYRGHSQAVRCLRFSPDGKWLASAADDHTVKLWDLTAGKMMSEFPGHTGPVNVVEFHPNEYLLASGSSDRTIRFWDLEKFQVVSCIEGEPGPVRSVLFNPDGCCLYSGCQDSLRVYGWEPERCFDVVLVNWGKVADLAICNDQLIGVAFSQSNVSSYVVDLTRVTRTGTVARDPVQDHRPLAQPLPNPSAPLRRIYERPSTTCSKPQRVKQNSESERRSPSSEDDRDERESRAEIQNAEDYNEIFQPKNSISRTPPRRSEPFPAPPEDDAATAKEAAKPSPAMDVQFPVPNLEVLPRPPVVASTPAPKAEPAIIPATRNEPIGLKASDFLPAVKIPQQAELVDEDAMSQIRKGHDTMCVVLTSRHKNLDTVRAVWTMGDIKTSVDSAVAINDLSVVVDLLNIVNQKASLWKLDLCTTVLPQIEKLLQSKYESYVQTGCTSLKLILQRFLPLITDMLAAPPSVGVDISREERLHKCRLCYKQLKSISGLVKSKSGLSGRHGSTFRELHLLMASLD
GFP-p80 250-655 aa (C-terminal region): residues 250-655 of Q9BVA0
UniProt E9Q7G0: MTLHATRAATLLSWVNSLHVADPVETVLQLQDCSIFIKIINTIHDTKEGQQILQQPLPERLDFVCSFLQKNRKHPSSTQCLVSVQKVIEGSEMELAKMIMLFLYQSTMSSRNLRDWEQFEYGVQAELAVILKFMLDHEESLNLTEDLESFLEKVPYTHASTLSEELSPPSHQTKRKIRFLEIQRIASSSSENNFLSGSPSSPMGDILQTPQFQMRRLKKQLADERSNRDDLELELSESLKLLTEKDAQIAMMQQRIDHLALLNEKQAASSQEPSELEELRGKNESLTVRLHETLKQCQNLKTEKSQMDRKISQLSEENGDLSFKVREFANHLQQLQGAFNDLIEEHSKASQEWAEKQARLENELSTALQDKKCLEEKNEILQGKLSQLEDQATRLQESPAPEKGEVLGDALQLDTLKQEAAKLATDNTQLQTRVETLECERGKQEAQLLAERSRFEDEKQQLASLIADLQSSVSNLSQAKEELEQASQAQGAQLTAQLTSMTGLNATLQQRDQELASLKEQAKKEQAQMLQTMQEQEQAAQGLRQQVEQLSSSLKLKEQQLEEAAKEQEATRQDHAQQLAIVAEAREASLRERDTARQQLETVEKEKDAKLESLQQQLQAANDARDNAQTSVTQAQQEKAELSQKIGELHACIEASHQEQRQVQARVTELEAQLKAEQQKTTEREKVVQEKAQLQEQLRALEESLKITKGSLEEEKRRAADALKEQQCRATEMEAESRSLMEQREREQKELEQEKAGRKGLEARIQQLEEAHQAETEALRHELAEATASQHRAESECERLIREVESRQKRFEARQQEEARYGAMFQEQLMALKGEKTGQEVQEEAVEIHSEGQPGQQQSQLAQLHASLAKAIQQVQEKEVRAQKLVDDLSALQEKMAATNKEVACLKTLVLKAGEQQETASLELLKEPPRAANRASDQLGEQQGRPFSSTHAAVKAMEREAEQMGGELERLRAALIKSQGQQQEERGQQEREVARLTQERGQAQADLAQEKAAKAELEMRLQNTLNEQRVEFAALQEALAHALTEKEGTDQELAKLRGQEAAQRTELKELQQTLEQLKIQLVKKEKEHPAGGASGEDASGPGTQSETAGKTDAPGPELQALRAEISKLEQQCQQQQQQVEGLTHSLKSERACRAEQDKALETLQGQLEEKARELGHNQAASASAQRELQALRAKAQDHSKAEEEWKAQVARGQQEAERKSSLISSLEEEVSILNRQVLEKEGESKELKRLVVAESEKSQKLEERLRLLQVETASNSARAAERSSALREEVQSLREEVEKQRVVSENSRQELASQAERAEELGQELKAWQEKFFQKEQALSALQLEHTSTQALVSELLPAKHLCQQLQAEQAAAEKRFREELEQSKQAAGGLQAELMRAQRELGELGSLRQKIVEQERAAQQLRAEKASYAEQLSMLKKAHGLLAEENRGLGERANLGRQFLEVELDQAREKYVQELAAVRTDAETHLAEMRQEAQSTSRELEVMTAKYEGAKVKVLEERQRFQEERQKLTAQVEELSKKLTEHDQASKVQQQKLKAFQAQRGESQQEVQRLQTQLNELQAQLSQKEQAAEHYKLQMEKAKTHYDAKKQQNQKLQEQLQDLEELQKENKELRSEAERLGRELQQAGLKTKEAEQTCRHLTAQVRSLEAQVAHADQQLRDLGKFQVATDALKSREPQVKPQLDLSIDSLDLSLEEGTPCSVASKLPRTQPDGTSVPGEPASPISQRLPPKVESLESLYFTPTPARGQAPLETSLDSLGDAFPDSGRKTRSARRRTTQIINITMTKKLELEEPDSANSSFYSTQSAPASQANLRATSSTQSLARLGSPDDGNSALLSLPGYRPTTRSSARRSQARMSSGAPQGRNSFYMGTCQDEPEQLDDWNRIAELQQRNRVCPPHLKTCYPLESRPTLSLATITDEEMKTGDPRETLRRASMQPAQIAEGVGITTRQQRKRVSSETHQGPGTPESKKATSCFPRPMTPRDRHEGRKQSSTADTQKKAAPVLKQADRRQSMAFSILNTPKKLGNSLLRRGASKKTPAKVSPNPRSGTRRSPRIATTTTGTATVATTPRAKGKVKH

Row | binding (GST-NuMA-FLAG (human)) | binding [1] | binding [2] | Substance
1 | binds |  |  | recombinant full-length p80 (GST removed) (from UniProt Q9BVA0 1-655)
2 | binds |  |  | recombinant p80 326-655 aa (GST removed) (from UniProt Q9BVA0 326-655) (domain or fragment)
3 |  | binds | binds | NuMA (nuclear mitotic apparatus protein), endogenous mouse (from UniProt E9Q7G0 1-2094)

— article PMC5228124
